PubChem BioAssay AID588497 (NMMLSC, 2011)
Screen size: about 360,000 compounds; about 780 (0.22%) were called active. Inconclusive results, whose numbers are uncertain, are shown with a selection of clear calls. No stated cut-off is given here; in the data, active means inhibition above about 35% (passing the limit was not always enough); inconclusive means no clear call, values can overlap the other calls.

These compounds were tested on Botulinum neurotoxin type F light chain protease (Clostridium botulinum) (assay: BoNT/F light chain protease inhibitors, primary screen, biochemical, flow cytometry, MLPCN library (AID 588497; further: plate controls were buffer without enzyme for full effect and enzyme alone for no effect)). Settings: Multiplex microsphere protease cleavage assay, at 10 µM, stronger effect = higher value.

Structure (SMILES) | inhibition
COc1cccc(C2=NOC(C(=O)NCc3ccccn3)C2)c1 (stereo not given) | inactive: 4.6%
COC(=O)c1ccc(S(=O)(=O)N2CCN(C(c3ccccc3)c3ccccc3)CC2)n1C | inconclusive: -57.6%
O=C(Nn1cnnc1)c1ccc(Cl)cc1 | inconclusive: -34.1%
CC1(C(=O)Nc2cccc3ccccc23)CCN1C(=O)Cc1ccc(Cl)cc1Cl (stereo not given) | inactive: -14%
COc1ccc(C(C(=O)NC2CCCCC2)N(C(=O)CCl)c2ccc(OC)cc2)cc1 (stereo not given) | inactive: -12%
CC(=O)C1C(c2ccc([N+](=O)[O-])cc2)C2C(C)=NN=C2CC1(C)O (stereo not given) | inconclusive: 119%
COc1ccccc1NC(=O)CCN1C(=O)c2ccccc2C1=O | inactive: 3.2%
CCOc1ccc(CCNC(=O)CSCC(=O)Nc2cccc(C)c2)cc1OCC | inconclusive: 25.5%
Cc1ccc(N=Nc2c(O)[nH]c3ccc(F)cc23)cc1 | inconclusive: -4.9%
O=[N+]([O-])c1ccc(NNC(=S)Nc2ccccc2)cc1 | inconclusive: -13.9%
Cc1ccc(Cn2c(=O)n(C)c(=O)c3sccc32)cc1 | inconclusive: -23.7%
COC(=O)c1sc(N2CCCCC2)c(C#N)c1N | inconclusive: 114%
COC(=O)c1cccc2c1NC(=O)C2=O | inconclusive: 16.3%
Cc1ccc(S(=O)(=O)N2CCOCC2)cc1C(=O)NCc1ccccc1CN1CCCC1 | inactive: 4.2%
Cc1ccc(Cl)cc1NC(=O)CCC(=O)O | inconclusive: -115%
CCc1nc2c(OCCOc3ccc(F)cc3)cccn2c1N(C)C(=O)CC(C)C | inactive: -4.9%
O=C(O)c1cccc(Nc2nc(-c3ccccc3)nc3ccccc23)c1 | inconclusive: 37.5%
CCOc1nc(Nc2ccccc2)nc(OCC)n1 | inactive: -0.4%
Clc1ccc(/C=C/c2nc(Cl)c(-c3ccc(Cl)cc3)c(Cl)n2)cc1 | inconclusive: 2.8%
CCOC(=O)c1ccccc1OCc1cc(/C=N/NC(=O)c2cccnc2)ccc1OC | inconclusive: -84.8%
COc1ccc(C(=O)Nc2ccnn2C2CCN(Cc3ccccn3)CC2)cc1 | inactive: -5.5%
O=C(/C=C/Nc1ccccc1)c1ccc(Cl)cc1Cl | inconclusive: -10.2%
COC(=O)CC(=O)O[C@H]1C=C[C@@H](NC(=O)OC(C)(C)C)C1 | inactive: -6.7%

Structure (SMILES) | inhibition
COc1cc(C(=O)NC(C)CCc2ccccc2)cc(OC)c1OC (stereo not given) | inconclusive: -15.2%
OC(CNCc1ccccc1)(c1ccccc1)c1ccccc1 | inconclusive: -46.1%
CCc1nc2ccccc2nc1N1CCN(S(=O)(=O)c2ccc(Cl)cc2)CC1 | inconclusive: 134%
CN1CCN(C(=O)c2ccc(-c3cccs3)s2)CC1 | inconclusive: -14.4%
CCCC(=O)Nc1ccc2oc(-c3ccc(OC)c(Br)c3)nc2c1 | inactive: 3.3%
O=C1CSC(c2cccc([N+](=O)[O-])c2)N1Cc1ccccc1 (stereo not given) | inconclusive: 22.9%
Cc1nc(N2CCN(C(c3ccccc3)c3ccccc3)CC2)[nH]c(=O)c1C | active: 35%
FC(F)(F)c1cccc(NC(=S)Nc2cccc(NC(=S)Nc3cccc(C(F)(F)F)c3)n2)c1 | inconclusive: -25.8%
CCOC(=O)Cn1c(=N)n(CCOc2ccc(F)cc2)c2ccccc21 | inconclusive: 25.6%
CN1C(=O)C(=Cc2sc(=O)n(-c3ccccc3)c2N2CCCCC2)C(=O)N(C)C1=O | inconclusive: -33%
CC(C)c1ccc([N+](=O)[O-])cc1S(=O)(=O)N1CCN(C)CC1 | inconclusive: -20.6%
CN(C)Cc1c(O)ccc2cc(-c3nc4ccccc4n3C)c(=O)oc12 | inconclusive: 13.4%
O=C(/C=C/c1cccs1)NC1CCCC1 | inactive: -10.3%
CCC(C)(C)NC(=O)C(c1ccc(OC)cc1)N(CCOC)C(=O)CCC(=O)Nc1nccs1 (stereo not given) | inactive: 2.9%
Cc1cccc(C(=O)Nc2ccccc2C(=O)Nc2ccc(C(=O)O)cc2)c1 | inconclusive: 11.4%
Cc1ccc(NC(=O)CS(=O)CC(=O)Nc2ccccc2-c2ccc(C)o2)cc1 (stereo not given) | inactive: -3.8%
COc1ccc(CNC(=O)c2sc(=O)n(Cc3ccccc3OC)c2C)cc1 | inactive: -2.8%
CCOC(=O)c1cnn(-c2ccccc2)c1NC(=O)CN1CCCCC1 | inconclusive: 76.1%
NC(=O)CSc1nc2ccccc2c(=O)n1Cc1ccccc1 | inconclusive: -39.9%
CCN(CC(=O)Nc1c(F)cccc1F)C(=O)CSC(=S)N1CCCC1 | inactive: -17.7%
Fc1cccc(NC(=S)NCc2ccccc2Cl)c1 | inconclusive: 9.4%
CCN(CC)CCCN=Cc1c(O)n(-c2cccc(C)c2C)c(=O)[nH]c1=O | inconclusive: 35.8%
CN(CCc1ccccn1)C(=O)c1cccnc1Oc1ccc(Cl)cc1 | inconclusive: 36.3%

Structure (SMILES) | inhibition
COc1cc(NC(=O)Cc2nn(C)c(=O)c3ccccc23)cc(OC)c1 | inconclusive: -14.5%
Cc1cc(C)c(N=Cc2c(O)c3ccccc3oc2=O)c(C)c1 | inconclusive: -4%
CC(=O)Nc1nc(-c2ccc(Cl)cc2)nc(C)c1C(C)=O | active: 35.4%
Cc1ccn(C)c(=N)c1 | inconclusive: -35.6%
CC(=O)N1CCN(C(c2ccccc2)c2nnnn2C(C)(C)C)CC1 (stereo not given) | inactive: -5.3%
CN1C(=O)/C(=C\c2ccco2)N=C1c1ccc(Cl)cc1Cl | inactive: -20%
O=C(Nc1ccc(F)cc1)C1C2CCC3C(CCC21)C3(Cl)Cl (stereo not given) | inconclusive: -42.5%
O=C1CC(NCCc2ccccc2)C(=O)N1CCc1ccccc1 (stereo not given) | inconclusive: -38%
O=C(CSc1nccc(-c2cccs2)n1)Nc1cccc(Cl)c1Cl | inconclusive: -63.7%
COC(=O)c1ccc(NC(=O)c2ccc3c(c2)OCO3)cc1 | inconclusive: -14.6%
COc1ccccc1NC(=O)CC(c1ccc(F)cc1)c1ccco1 (stereo not given) | inconclusive: -40.9%
CN1C(=O)/C(=C\c2ccccc2OCc2ccccc2)SC1=S | inconclusive: 3.7%
COC(=O)c1cc(C#N)c(Oc2ccc(F)cc2)nc1C | inconclusive: 2.1%
CCC(C)Nc1c([N+](=O)[O-])cc(C)cc1[N+](=O)[O-] (stereo not given) | inactive: -6.9%
S=c1[nH]nc(-c2cc(-c3ccccc3)n[nH]2)n1/N=C/C(Br)=C/c1ccccc1 | inconclusive: -46.9%
Cc1cc(C)c2c(N)c(C(=O)Nc3ccc(C)c(C)c3)sc2n1 | inconclusive: -18.1%
N#CC(Cc1ccccc1)(Cc1ccccc1)C(=O)NN | inconclusive: -7.7%
Cc1ccccc1N1C(=O)C2C3CCC(O3)C2C1=O (stereo not given) | inconclusive: -43.9%
C#CC1(O)CCC2C3CCC4=CC(=O)CCC4=C3C=CC21C (stereo not given) | inactive: 7.6%
O=c1[nH]c2ccccc2nc1NCc1ccccc1 | inconclusive: -23%
Clc1ccc(-c2nnc(-c3cccnc3)o2)cc1 | inconclusive: 19.9%
Cc1cccc(C)c1NC(=O)CSc1n[nH]c(=O)n1C1CC1 | inactive: 3.1%
NC(=O)/C(=C\c1ccccc1)NC(=O)c1ccc(NC(=O)c2ccccc2)cc1 | inconclusive: -17.4%

Structure (SMILES) | inhibition
O=c1[nH]c(/C=C/c2ccccc2F)nc2ccccc12 | inconclusive: 3.4%
COc1ccc(/C=C\C(=O)O[C@@H]2C(O)C(O[C@@H]3OC(C)[C@H](O[C@@H]4OCC(O[C@H]5O[C@H](CO)[C@@H](O)C(O)C5O)C(O)C4O)C(O)C3O)[C@H](OC(=O)[C@]34CCC(C)(C)C[C@@H]3C3=CCC5[C@@]6(C)CC(O)C(O[C@@H]7OC(CO)C(O)[C@H](O)[C@H]7O)[C@@](C)(C(=O)O)C6CC[C@@]5(C)[C@]3(CO)CC4)O[C@H]2C)cc1 (stereo not given in full) | inactive: -9.1%
Clc1ccc(-c2csc(N/N=C/c3cccnc3)n2)c(Cl)c1 | inactive: -8.5%
C#CCN1c2ccccc2Sc2cccnc21 | inconclusive: -5.2%
COc1ccccc1C1C(C#N)=C(N)Oc2cc(C)n(Cc3ccccn3)c(=O)c21 (stereo not given) | inconclusive: 0.9%
COc1cc(Cl)c(S(=O)(=O)NCCCn2ccnc2)cc1Cl | inactive: 34.4%
COc1ccccc1NC(=O)CSc1ncnc2c1oc1ccccc12 | inactive: 0.5%
COC(=O)c1cccc(NC(=O)CN2C(=O)c3ccccc3C2=O)c1 | inconclusive: 18.8%
COc1cccc(CC(=O)Nc2ccc(-c3csc(C)n3)cc2)c1 | inconclusive: 24.3%
COC(=O)C(Cc1ccc(O)cc1)NC(=O)c1ccccc1OC (stereo not given) | inconclusive: -25.6%
Cn1c(=O)c2c(ncn2CC(COCc2ccccc2)OCc2ccccc2)n(C)c1=O (stereo not given) | inconclusive: -70.8%
O=C(NCc1nnc(SCC(=O)N2CCCCCC2)o1)c1ccccc1F | inactive: -1.8%
COC(=O)C1CCN(S(=O)(=O)c2c[nH]c(=O)[nH]c2=O)CC1 | inactive: 0.8%
CCNC(=S)NNC(=O)c1cc(CC(C)C)nc2ccccc12 | inactive: 1%
O=c1c2ccccc2nc(/C=C/c2ccc3c(c2)OCO3)n1CCCO | inactive: 2.7%
Brc1cccc(CN2CCN(c3ncccn3)CC2)c1 | inconclusive: -15.4%
Cc1cccc(NC(=O)c2cccnc2)c1C | inactive: 7.1%
O=C(NCCC1CCCC1)c1cccs1 | inconclusive: 26.2%
COc1ccccc1N1CCN(C2CCCN(Cc3ccc(Cl)cc3)C2)CC1 (stereo not given) | inconclusive: -13.9%
CCN(CC)Cc1c(O)ccc2c(=O)c(-c3ccccc3OC)coc12 | inconclusive: -18%
COc1cccc(OCC(=O)Nc2c3c(nn2-c2ccc(F)cc2)CS(=O)(=O)C3)c1 | inactive: 0.7%
